# Measurements as given in the supplement of paper PMC5949888.
# Most values lie at the floor of the assay. Slopes are relative: functional sequences can read slightly below zero.
# Tested on: Saccharomyces cerevisiae PS128 hsf1 delta, HSF1(1-493) fusion
# Test: growth estimate (transactivation domain function in HSF1 fusion, heat-shock survival) (a.u. (slope of normalised read count over time)); higher = stronger growth at 37°C, i.e. more transactivation activity
# Settings: library: random library
row,Substance,growth estimate
1,RCTASMLLSFGAHQCSR,< -0.25
2,WCTHSCLESTHIRQEPVIRP,< -0.25
3,SARMM,< -0.25
4,PTSQKAKVVVEDV,< -0.25
5,TAARKGELVEREAFIFRCDE,< -0.25
6,AFAVLSTRFQAMTKPETVCA,< -0.25
7,ADTGYSSYTMRSIQVARSPP,< -0.25
8,GVTVTGVTQWTSP,< -0.25
9,RGPGHVAISRQWVCTAGLSG,< -0.25
10,TASSGIYPILLRSPLPAAVG,< -0.25
11,RDIFLGSCSWRIRRPISLPR,< -0.25
12,LKWGQVFNRENPP,< -0.25
13,VPLLPQS,< -0.25
14,GKWSNVKPMWVLR,< -0.25
15,GPGLGTRRSTSCPSSTILCS,< -0.25
16,GTTIVALTAIARGRSTTLPT,< -0.25
17,WGSELKELFGL,< -0.25
18,WDHRMEQPSFSSASLVGQPF,< -0.25
19,LCSHILFR,< -0.25
20,SLIGPLRS,< -0.25
21,VNRGPREAESDASLGITGCL,< -0.25
22,VRCFDGRKGQWGLRSIGRCH,< -0.25
23,DLDLMSRREGQILARATVSA,< -0.25
24,GVAANYAWFDTSCILKSART,< -0.25
25,LTPVTSRMLCVLSVLKGPTT,< -0.25

row,Substance,growth estimate
1,QDRGVHALNCDG,< -0.25
2,YIVGIPSIRSLA,< -0.25
3,RPDCVGPTCTASGLKQP,< -0.25
4,VTRVSLVSSLLTGCYSIPGK,< -0.25
5,VRSI,< -0.25
6,VVGLRIFSNQTSGPVPNARL,< -0.25
7,HLAVEVRCVPRIGGIFNAYV,< -0.25
8,LCLVFSIPA,< -0.25
9,YTFLLTKRGPAGVPLFNRKC,< -0.25
10,CPGRQVCDGGNPPRGARVQS,< -0.25
11,VCNDAHKVF,< -0.25
12,LTSFGQPVIVA,< -0.25
13,CGTFCELMR,< -0.25
14,RNMYRITKLKFRTVGYNGNV,< -0.25
15,MTLANKIPMSVIWYATGLL,< -0.25
16,ESGPSSEWCLKQT,< -0.25
17,QSPRLVAS,< -0.25
18,IVGSFSGSTRHSNTRAFRQD,< -0.25
19,CRGQKGTAQLGYLMAPVP,< -0.25
20,GPRRGHVCVLSCCHLCPDLY,< -0.25
21,VNR,< -0.25
22,WAIGGI,< -0.25
23,CYATFRSEGIVREAHRPRRV,< -0.25
24,RNQVASGLHSDMFSSTGPGV,< -0.25
25,GGLDPRVAA,0.183

# Two entries picked at random from the list so far:
row,Substance,growth estimate
4,VTRVSLVSSLLTGCYSIPGK,< -0.25
12,LTSFGQPVIVA,< -0.25

# Shown bar-delimited: part of the list above
row | Substance | growth estimate
5 | VRSI | < -0.25
7 | HLAVEVRCVPRIGGIFNAYV | < -0.25

# Going on with the list:

row,Substance,growth estimate
1,GSGMAVAQERAYAPFVLE,< -0.25
2,PRIG,< -0.25
3,LFKKTYILVARNQGVVPKGP,< -0.25
4,TIGCSVKQTRAGQLADVGCG,< -0.25
5,LGYP,< -0.25
6,LTAGKIGSSSVGQK,< -0.25
7,STSIIGKDGTTTHHSDQLPV,< -0.25
8,GVSQWFVSSISKRVIRGARS,< -0.25
9,SISATVWVHGRISRMSLL,< -0.25
10,DCRCIFTIQWGGDGGLASRS,< -0.25
11,KDARITS,< -0.25
12,SDLRCLRHLTVP,< -0.25
13,SDYPGQRKSAAGTPLWIVGW,< -0.25
14,YANHGYPYRDYELFSISAHR,< -0.25
15,SVSIIVRDIWLKWRNANIPS,< -0.25
16,ALVMFTRYQKHRCNNVTRVM,< -0.25
17,IIGQLRQD,< -0.25
18,SILQPLQLV,< -0.25
19,RGADRGYH,< -0.25
20,STIQLSVPRDGYFNDCALRA,< -0.25
21,QGRACSDRR,< -0.25
22,LCGPYQDRGQSFYLQLTG,< -0.25
23,TLKGRSVIRTLWAVGVWHVK,< -0.25
24,CPLRGIGGWAYKVSRCGQSK,< -0.25
25,AMSCECFVPSTLLVVIPNTW,< -0.25

row,Substance,growth estimate
1,VESVRKRHYKR,< -0.25
2,NLESGSSKASSLKSPDATIG,-0.219
3,GLCSSSGGTWAGLQSRAFGH,< -0.25
4,TEGFVDGRLPAWTFYRVLDA,< -0.25
5,VLEVNVIRSVYGSLGLAVML,< -0.25
6,RKLPMLGKLQLTSGGTLQLQ,-0.245
7,SISR,-0.245
8,TCAT,< -0.25
9,RSIKILCCKLQW,< -0.25
10,RIGCHPLAGKRVRRTVAPSR,< -0.25
11,TVDLTSLSENLTSS,-0.248
12,ESESARHEHQANTRIHVIKD,< -0.25
13,RISVICSSPVIDRIRILVHG,-0.24
14,LGLTSERLSSSRLGSDRPFL,< -0.25
15,ADSRGSIGVSLPSSEVNGMG,< -0.25
16,IAQLMDLWTFYMPSSDPCRR,-0.183
17,SGKRVKSCLKFSWGPLISRV,< -0.25
18,GGG,< -0.25
19,GLANRLHSSCEGR,< -0.25
20,LVLWIPANYLVFMVSGHAVR,< -0.25
21,SRLDMRDTWIVRGVARLRLR,< -0.25
22,WCSEGVFGG,< -0.25
23,LGNAGVLRDVK,< -0.25
24,IGVDRTPRLRFRVPRLLGNH,< -0.25
